{"source": "patent US12674204B2", "about": "“Method for generating retinal pigment epithelium (RPE) cells from induced pluripotent stem cells (iPSCs)” (THE UNITED STATES OF AMERICA, as represented by the …, priority 2013, dated 2026)", "tested_on": "iPSC-derived RPE", "experiment": "Intracellular calcium measurements and electrophysiology of iPSC-derived RPE monolayers", "type": "cell-based, human", "conditions": "apical application, FIG. 26C", "description": "Intracellular Calcium Measurements and Electrophysiology: To assess calcium signaling in the RPE cells: ATP (200 μM; Sigma) and Cyclopiazonic Acid (CPA; 10 μM; EMD Millipore); (see Maminishkis et al., Invest. Ophthal. Vis. Sci. 47(8):3612-3624, 2006); Quinn et al., Invest. Ophthal. Vis. Sci. 33(13):3513-3527, 1992).\nCalomel electrodes in series with Ringer solutions and agar bridges were used to measure the transepithelial potential (TEP). The signals from intracellular microelectrodes were referenced to the basal bath to measure the apical and basal membrane potentials, VA and VB, where TEP=VB−VA. The total transepithelial resistance (Rt), and the ratio of the apical to basolateral membrane resistance (RA/RB) were obtained by passing 2-4 μA current pulses (peak to peak) across the tissue and measuring the resultant changes in TEP, VA and VB. See Maminishkis et al. supra and Quinn et al., supra for details.", "note": "For at least one compound, name, drawing or mass did not settle the structure."}
{"smiles": "CC(=O)C1=C(O)[C@@H]2[C@H]3c4c[nH]c5cccc(c45)C[C@H]3C(C)(C)N2C1=O", "note": "[cyclopiazonic acid, Cyclopiazonic Acid]", "values": [{"measurement": "intracellular calcium response", "value": "steady-state calcium increases and blunts the ATP response"}]}
